One experiment addresses human GITR-CHO (human) (UniProt Q9Y5U5). As to the kind of experiment: flow cytometry on human GITR-CHO cells. On the technique in general: Flow cytometry measures light scatter and fluorescence of single cells or particles in a stream.
In experiment [1] the target is GITR expressed on CHO cells (Homo sapiens (Human)) (UniProt Q9Y5U5). As to the kind of experiment: flow cytometry competition on GITR-expressing CHO cells; blocked ligand recombinant GITRL; readout GITRL bound, MFI-FL1.
The target is the same in experiment [2]. As to the kind of experiment: flow cytometry on GITR-expressing CHO cells, MFI-FL4.

Protein sequences, listed by entry. Tags and fused reporters are not part of them. Residues count along the entry.
UniProt Q9Y5U5, residues 26-241: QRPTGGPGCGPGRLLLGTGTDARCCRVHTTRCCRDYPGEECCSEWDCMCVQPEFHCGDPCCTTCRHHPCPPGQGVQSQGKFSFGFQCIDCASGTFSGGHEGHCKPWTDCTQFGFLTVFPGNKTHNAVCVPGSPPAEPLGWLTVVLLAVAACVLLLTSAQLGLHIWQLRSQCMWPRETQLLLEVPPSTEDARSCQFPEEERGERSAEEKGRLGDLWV

These results are taken from US20190100594A1.

These are yes or no findings as the source states them, for the method shown. Some results given as binding are weak or reduced against the parent protein; the word gives no strength.

B1: hzC06v3.4 (VHH)
VHH: EVQLLESGGGEVQPGGSLRLSCAASGSVFSIDAMGWYRQAPGKQRELVAVLSGISSAKYAESVKGRFTISRDNAKNTVYLQMSSLRAEDTAVYYCYADVSTGWGRDAHGYWGQGTLVTV
Turning to B1, the binding result with human GITR-CHO (human) was “binds”.

B2: hzC06v3.12 (VHH)
VHH: EVQLLESGGGEVQPGGSLRLSCAASGSVFSIDAMGWYRQAPGKQRELVAVLSGISSAKYAASAPGRFTISRASAPNTVYLQMSSLRAEDTAVYYCYADVSTGWGRDAHGYWGQGTLVTV
As for B2, the binding entry with human GITR-CHO (human) is given as “binds”.

B3: hzC06v3.9 (VHH)
VHH: EVQLLESGGGEVQPGGSLRLSCAASGSVFSIDAMGWYRQAPGKQRELVAVLSGISSAKYAASAPGRFTISRDNAKNTVYLQMSSLRAEDTAVYYCYADVSTGWGRDAHGYWGQGTLVTV
For B3, the binding result with human GITR-CHO (human) is reported as “binds”.

B4: hzC06v3.11 (VHH)
VHH: EVQLLESGGGEVQPGGSLRLSCAASGSVFSIDAMGWYRQAPGKQRELVAVLSGISSAKYADAVEGRFTISRASAPNTVYLQMSSLRAEDTAVYYCYADVSTGWGRDAHGYWGQGTLVTV
Take B4: the binding entry in the experiment with human GITR-CHO (human) is recorded as “binds”.

B5: hzC06v3.7 (VHH)
VHH: EVQLLESGGGEVQPGGSLRLSCAASGSVFSIDAMGWYRQAPGKQRELVAVLSGISSAKYAASAPGRFTISRDAVKNTVYLQMSSLRAEDTAVYYCYADVSTGWGRDAHGYWGQGTLVTV
On to B5, for which the binding entry in the experiment with human GITR-CHO (human) was “binds”.

B6: hzC06v3.6 (VHH)
VHH: EVQLLESGGGEVQPGGSLRLSCAASGSVFSIDAMGWYRQAPGKQRELVAVLSGISSAKYAESVKGRFTISRASAPNTVYLQMSSLRAEDTAVYYCYADVSTGWGRDAHGYWGQGTLVTV
Consider B6, for which, in the experiment with human GITR-CHO (human), the binding result is reported as “binds”.

B7: hzC06v3.10 (VHH)
VHH: EVQLLESGGGEVQPGGSLRLSCAASGSVFSIDAMGWYRQAPGKQRELVAVLSGISSAKYADAVKGRFTISRASAPNTVYLQMSSLRAEDTAVYYCYADVSTGWGRDAHGYWGQGTLVTV
For B7, the binding result with human GITR-CHO (human) is recorded as “binds”.

B8: C7 (VHH, not shown: a dimerising Fc or GST)
VHH: QVQLQESGGGLVQAGGSLRLSCTASGSIFSIDDMGWYRLAPGKQRELVAVHSGSSTNYGDSVKGRFTISGDSAKNTVYLQMHRLEPEDTAVYYCYAAISSGWGRDAEDYWGQGTQVTVS
Regarding B8, the binding result in experiment [1] and in experiment [2] was “binds” in each case.

B9: B2 (VHH, not shown: a dimerising Fc or GST; small tags and cut ends)
VHH: QVQLQESGGGLVQPGGSLRLSCAASGSVFSIDSMSWFRQAPGNERELVALITGGHTTTYGDSVKGRFTISRASAPNTVHLQMNSLQPEDTAVYYCNAAVSTGWGRNADDYWGQGTQVTVS
For B9, the binding entry in experiment [1] and in experiment [2] was “binds” throughout.

B10: H11 (VHH, not shown: a dimerising Fc or GST)
VHH: QVQLVQSGGGLVQPGGSLRLSCAASGSVFSIDSMSWFRQAPGNERELVALITGGRTTTYADSVKGRFTISRASAPNTVHLQMNSLKPEDTAVYYCNAVVSTGWGRNADDYWGQGTQVTVS
For B10, the binding result in experiment [1] and in experiment [2] was “binds” throughout.

B11: C4 (VHH, not shown: a dimerising Fc or GST)
VHH: QVQLVQSGGGLVQPGESLRLSCAASGSVFSIDSMSWFRQGPGNERELVALITGGRTTTYADSVKGRFTISRANAPNTVHLQMNSLKPEDTAVYYCNAAVSTGWGRSADDYWGQGTQVTVS
B11: the binding result in experiment [1] and in experiment [2] was “binds” each time.

B12: B5 (VHH, not shown: a dimerising Fc or GST)
VHH: QVQLVQSGGGLVQPGESLRLSCAASGSVFSIDSMSWFRQGPGNERELVALITGGRTTTYADSVKGRFTISRANAPNTVHLQMNSLEPEDTAVYYCNAAVSTGWGRNADDYWGQGTQVTVS
B12: the binding entry in experiment [1] and in experiment [2] was “binds” each time.

B13: E2 (VHH, not shown: a dimerising Fc or GST; small tags and cut ends)
VHH: QVQLQESGGGLVQPGGSLRLSCAASGSVFSIDSMSWFRQAPGNERELVALITGGRTTTYADSVKGRFTISRASAPNTVYLQMNSLKPEDTAVYYCNAVVSTGWGRNADDYWGQGTQVTVS
Regarding B13, the binding result in experiment [1] and in experiment [2] was “binds” throughout.

B14: B7 (VHH, not shown: a dimerising Fc or GST)
VHH: QVQLQESGGGLVQPGGSLRLSCAASGSVFSIDSMSWFRQTPGNERELVAHITGGRTTTYADSVKGRFTISRASAPNTVHLQMNNLKPEDTAVYYCNAAVSTGWGRNADDYWGQGTQVTVS
Turning to B14, the binding entry in experiment [1] and in experiment [2] was “binds” in each case.

B15: 2A1 (VHH, not shown: a dimerising Fc or GST; small tags and cut ends)
VHH: EVQLVQSGGGLVQPGGSLRLSCAASGNIFSIDAMGWYRQAPGRQRELVAQIPGGPTDSVKGRFTVSGNSAKNTGYLQMNTLKPEDTAVYYCNIVASTSWGSPSKVYWGQGTQATVSS
With B15, the binding result in experiment [1] and in experiment [2] was “binds” each time.

B16: F2 (VHH, not shown: a dimerising Fc or GST; small tags and cut ends)
VHH: QLVQSGGGLVQPGESLRLSCAASGSVFSIDSVSWFRQGPGNERELVALITGGRTTTYADSVKGRFTISRANAPNTVHLRMNSLKPEDTAVYYCNAAVSTGWGRNADDYWGQGTQVTVS
On to B16, for which the binding entry in experiment [1] and in experiment [2] was “binds” in each case.

B17: C06 (VHH, not shown: a dimerising Fc or GST; small tags and cut ends)
VHH: QVQLQESGGGLVQAGGSLRLSCAASGSVFSIDAMGWYRLAPGQQRELVAVLNGISSAKYADSVKGRFTISGDSAKNAVYLQMDGLKPEDTAVYYCYADVSTGWGRDAHGYWGQGTQVTVSS
B17: the binding entry in experiment [1] and in experiment [2] was “binds” throughout.

B18: B3 (VHH, not shown: a dimerising Fc or GST)
VHH: QVQLVQSGGGLVQPGGSLRLICAASGSVFSIDSMSWFRQRPGNERELVALITGGRTTTYSDSVKGRFTISRASALNTVHLQMNSLKPEDTAVYYCNAALSTGWGRDASAYWGQGTQVTVS
For the molecule B18, the binding result in experiment [1] and in experiment [2] was “binds” in each case.

B19: hzCC04v2 (VHH)
VHH: EVQLLESGGGEVQPGGSLRLSCAASGFTFSTHGMDWFRQAPGKGLEWVSAINNGGSWTSYASSVKGRFTISRDNAKNTLYLQMSSLRAEDTAVYWCQNRVTRGQGTLVTV
For B19, the binding entry with human GITR-CHO (human) is recorded as “binds”.

B20: hzCC04v2.2 (VHH)
VHH: EVQLLESGGGEVQPGGSLRLSCAASGFTFSTHGMDWFRQAPGKGLEWVSAINNGGSWTSYASSVKGRFTISRDNAKNTLYLQMSSLRAEDTAVYYCQNRVTRGQGTLVTV
Turning to B20, in the experiment with human GITR-CHO (human), the binding entry is “binds”.

B21: hzCC04v5 (VHH)
VHH: EVQLLESGGGEVQPGGSLRLSCAASGFTFSTHGMDWFRQAPGKDLEWVSAIQSGGSWTSYASSVKGRFTISRDNAKNTLYLQMSSLRAEDTAVYWCQNRVTRGQGTLVTV
For the molecule B21, in the experiment with human GITR-CHO (human), the binding entry is given as “binds”.

B22: hzCC04v1.2.1 (VHH)
VHH: EVQLLESGGGEVQPGGSLRLSCAASGFTFSTHGMDWFRQAPGKDLEWVSAINQGGSWTSYASSVKGRFTISRDNAKNTLYLQMSSLRAEDTAVYYCQNRVTRGQGTLVTV
On to B22, for which, in the experiment with human GITR-CHO (human), the binding entry was “binds”.

B23: F05 (VHH, not shown: a dimerising Fc or GST; small tags and cut ends)
VHH: QVQLVQSGGGLVQAGGSLRLSCTASGSIFSINHMAWYRQAPGKQREMVAHITGGASTKYADSVKGRFTISRDSALNTVSLRMNSLKPEDTAVYYCNAEVNEGWNADYYDVWGQGTQVTVSS
As for B23, the binding entry in experiment [1] and in experiment [2] was “binds” each time.

B24: B12 (VHH, not shown: a dimerising Fc or GST)
VHH: QVQLQQSGGGLVQAGGSLRLSCAASGSIFSIDAMGWYRLAPGKQRELVAVIDGVSPNYADSVKGRFTISSDIAKNTVYLQMHSPKPEDTAVYYCNADVSTGWGRPADHYWGQGTQVTVS
As for B24, the binding entry in experiment [1] and in experiment [2] was “binds” in each case.
